These are yes or no findings as the source states them, for the method shown. A result given as binding can be weak or reduced; the word gives no strength.

By UniProt entry, the sequences of proteins in these tests, tags left out. Where a name states a change or a piece, a line headed by the entry shows the natural chain unless it says otherwise.
UniProt Q91WV7: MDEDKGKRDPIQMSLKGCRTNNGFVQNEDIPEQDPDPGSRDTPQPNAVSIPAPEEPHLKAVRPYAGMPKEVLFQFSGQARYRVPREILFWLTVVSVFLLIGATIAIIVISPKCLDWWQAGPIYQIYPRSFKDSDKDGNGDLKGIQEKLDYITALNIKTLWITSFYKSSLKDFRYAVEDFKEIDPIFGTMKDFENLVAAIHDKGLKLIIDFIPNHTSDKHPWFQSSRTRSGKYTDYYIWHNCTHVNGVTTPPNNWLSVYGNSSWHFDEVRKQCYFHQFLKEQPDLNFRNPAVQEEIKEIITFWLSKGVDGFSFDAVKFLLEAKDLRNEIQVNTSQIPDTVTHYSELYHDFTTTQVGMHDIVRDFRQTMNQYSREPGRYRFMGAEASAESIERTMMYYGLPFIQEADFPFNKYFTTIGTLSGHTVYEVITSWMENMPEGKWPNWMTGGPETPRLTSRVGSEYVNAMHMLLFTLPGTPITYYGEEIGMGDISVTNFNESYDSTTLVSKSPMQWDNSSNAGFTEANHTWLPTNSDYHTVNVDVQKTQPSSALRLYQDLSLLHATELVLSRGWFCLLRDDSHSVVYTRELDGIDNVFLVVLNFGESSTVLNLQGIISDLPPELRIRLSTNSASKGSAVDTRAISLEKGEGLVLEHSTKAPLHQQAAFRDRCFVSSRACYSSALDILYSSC
UniProt Q9QXA6: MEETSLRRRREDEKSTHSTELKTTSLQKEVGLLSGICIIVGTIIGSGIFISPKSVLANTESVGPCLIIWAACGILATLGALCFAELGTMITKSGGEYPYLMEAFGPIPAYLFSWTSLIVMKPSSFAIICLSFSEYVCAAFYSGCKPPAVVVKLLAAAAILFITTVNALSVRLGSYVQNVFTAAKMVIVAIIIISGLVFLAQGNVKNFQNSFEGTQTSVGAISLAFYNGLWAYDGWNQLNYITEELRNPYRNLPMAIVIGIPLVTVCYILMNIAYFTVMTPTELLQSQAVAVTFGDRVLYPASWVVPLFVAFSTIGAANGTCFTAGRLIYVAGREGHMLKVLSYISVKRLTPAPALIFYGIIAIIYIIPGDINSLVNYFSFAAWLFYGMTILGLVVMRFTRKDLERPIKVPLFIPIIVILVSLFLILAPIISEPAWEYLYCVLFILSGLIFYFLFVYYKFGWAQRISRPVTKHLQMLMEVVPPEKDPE

The target in the experiment is murine rBAT (murine) (UniProt Q91WV7). The experiment is described as follows: negative-stain electron microscopy; complex purified with Strep XT resin and GFP nanotrap, in LMNG/CHS, about 0.02 mg/ml, 1% uranyl formate; 2D class averages; both purified.

“murine b^0,+AT with Strep II tag (from UniProt Q9QXA6)”: the binding result is “binds”.

The record behind these values is article PMC9110406.
